Data as given in PubChem BioAssay AID743121 (NCATS, 2013).
Here is a random part of about 26,000 reagents. 167 of all reagents (0.63%) were called active. 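Calls are per gene from RSA p-values that are not deposited; an individual active-marked siRNA can sensitise only weakly.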 The numbers tell different reagents against one gene apart. Not all columns of the deposit are shown.

- Screen: 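Genes whose silencing strengthens cell killing by camptothecin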 (primary screen)
- Cell system: MDA-MB-231 cells, a human breast cancer line
- Knock-down reagent: single siRNA against human genes, 20 nM siRNA (0.8 pmol per well)
- Duration: 120 h (drug added 48 h after transfection, read 72 h later)
- Challenge: camptothecin 20 nM (about EC30) for 72 h; vehicle 0.1% DMSO in parallel plates
- Read-out: 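Cell viability by ATP luminescence (CellTiter-Glo) as % of non-targeting siRNA wells, and the log2 ratio of viability without drug over viability with camptothecin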
- Reading the numbers: log2 vehicle/camptothecin viability: higher = stronger sensitisation to camptothecin
- Rule for the call: 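Active genes have an RSA gene-level p-value below 0.001, computed from the ratios of their separate siRNAs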

no.	gene knocked down	siRNA no.	log2 vehicle/camptothecin viability	call
1	ACLY	1	-0.467	inactive
2	ACLY	2	-0.337	inactive
3	ACLY	3	0.677	inactive
4	MED26	1	0.35	inactive
5	MED26	2	-0.502	inactive
6	MED26	3	-0.183	inactive
7	MED26	4	0.974	inactive
8	CYP3A4	1	-0.475	inactive
9	CYP3A4	2	-0.66	inactive
10	CYP3A4	3	-0.162	inactive
11	CYP3A4	4	-0.0731	inactive
12	TKTL1	1	-0.101	inactive
13	TKTL1	2	-0.0139	inactive
14	TKTL1	3	0.0528	inactive
15	TKTL1	4	-0.135	inactive
16	NOD2	1	-0.4	inactive
17	NOD2	2	-0.534	inactive
18	NOD2	3	-0.0208	inactive
19	NOD2	4	0.179	inactive
20	AGA	1	-0.391	inactive
21	AGA	2	-0.0239	inactive
22	AGA	3	-0.0861	inactive
23	AGA	4	0.0785	inactive
24	STAT1	1	0.288	inactive
25	STAT1	2	-0.0435	inactive
26	STAT1	3	0.4	inactive
27	STAT1	4	0.504	inactive
28	NRIP2	1	-0.318	inactive
29	NRIP2	2	-0.219	inactive
30	NRIP2	3	-0.0547	inactive
31	NRIP2	4	-0.255	inactive
32	TRIM35	1	-0.0968	inactive
33	TRIM35	2	-0.33	inactive
34	TRIM35	3	0.175	inactive
35	TRIM35	4	-0.0724	inactive
36	ADAM20	1	-0.177	inactive
37	ADAM20	2	0.127	inactive
38	ADAM20	3	0.421	inactive
39	ADAM20	4	-0.254	inactive
40	PGAM2	1	-0.127	inactive
41	PGAM2	2	0.578	inactive
42	PGAM2	3	-0.0755	inactive
43	PGAM2	4	0.835	inactive
44	LRRC4C	1	-0.133	inactive
45	LRRC4C	2	-0.593	inactive
46	LRRC4C	3	0.489	inactive
47	LRRC4C	4	-0.322	inactive
48	MNX1	1	1.01	inactive
49	MNX1	2	-0.662	inactive
50	MNX1	3	-0.498	inactive
51	MNX1	4	0.0831	inactive
52	NPRL2	1	0.311	inactive
53	NPRL2	2	-0.491	inactive
54	NPRL2	3	-0.531	inactive
55	NPRL2	4	0.108	inactive
56	MOK	1	-0.676	inactive
57	MOK	2	-0.206	inactive
58	MOK	3	-0.164	inactive
59	MOK	4	-0.111	inactive
60	EPS8	1	-0.213	inactive
61	EPS8	2	0.0301	inactive
62	EPS8	3	0.431	inactive
63	EPS8	4	-0.202	inactive
64	HMGCL	1	-0.0231	inactive
65	HMGCL	2	0.0054	inactive
66	HMGCL	3	0.111	inactive
67	HMGCL	4	-0.332	inactive
68	FMR1	1	0.137	inactive
69	FMR1	2	-0.416	inactive
70	FMR1	3	-0.275	inactive
71	FMR1	4	-0.195	inactive
72	PTPRM	1	-0.393	inactive
73	PTPRM	2	-0.186	inactive
74	PTPRM	3	0.268	inactive
75	PTPRM	4	-0.177	inactive
76	BRS3	1	0.122	inactive
77	BRS3	2	-0.29	inactive
78	BRS3	3	-0.583	inactive
79	BRS3	4	-0.222	inactive
80	GPR31	1	0.38	inactive
81	GPR31	2	-0.335	inactive
82	GPR31	3	0.291	inactive
83	GPR31	4	-0.514	inactive
84	ORM1	1	0.029	inactive
85	ORM1	2	1.33	inactive
86	ORM1	3	-0.72	inactive
87	ORM1	4	-0.146	inactive
